Test results taken from the supplement of paper PMC10849652.
Some of the results follow.

Protein sequences, listed by entry. Tags and fused reporters are not part of them. Lines headed by an entry give the natural chain unless they say otherwise; changes in a name come on top.
UniProt Q9NR56: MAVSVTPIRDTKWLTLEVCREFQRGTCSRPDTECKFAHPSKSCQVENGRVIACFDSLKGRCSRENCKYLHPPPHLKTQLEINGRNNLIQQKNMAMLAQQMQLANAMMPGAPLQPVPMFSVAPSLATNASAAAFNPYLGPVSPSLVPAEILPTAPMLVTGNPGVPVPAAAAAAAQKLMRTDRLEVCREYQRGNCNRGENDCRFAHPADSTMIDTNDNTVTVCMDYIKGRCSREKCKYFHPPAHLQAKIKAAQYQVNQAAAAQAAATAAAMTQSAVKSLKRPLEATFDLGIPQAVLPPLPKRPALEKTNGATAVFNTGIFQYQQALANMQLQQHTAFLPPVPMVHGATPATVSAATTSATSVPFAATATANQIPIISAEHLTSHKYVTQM
UniProt Q68D91: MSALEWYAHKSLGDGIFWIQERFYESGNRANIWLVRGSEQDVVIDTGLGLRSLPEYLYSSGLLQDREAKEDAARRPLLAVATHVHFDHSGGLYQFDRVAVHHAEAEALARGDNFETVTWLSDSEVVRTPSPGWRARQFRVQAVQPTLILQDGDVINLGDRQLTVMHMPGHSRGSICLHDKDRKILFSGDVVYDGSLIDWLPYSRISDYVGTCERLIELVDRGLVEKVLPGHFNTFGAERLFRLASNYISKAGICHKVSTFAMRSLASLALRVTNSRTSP
UniProt Q9HCC0: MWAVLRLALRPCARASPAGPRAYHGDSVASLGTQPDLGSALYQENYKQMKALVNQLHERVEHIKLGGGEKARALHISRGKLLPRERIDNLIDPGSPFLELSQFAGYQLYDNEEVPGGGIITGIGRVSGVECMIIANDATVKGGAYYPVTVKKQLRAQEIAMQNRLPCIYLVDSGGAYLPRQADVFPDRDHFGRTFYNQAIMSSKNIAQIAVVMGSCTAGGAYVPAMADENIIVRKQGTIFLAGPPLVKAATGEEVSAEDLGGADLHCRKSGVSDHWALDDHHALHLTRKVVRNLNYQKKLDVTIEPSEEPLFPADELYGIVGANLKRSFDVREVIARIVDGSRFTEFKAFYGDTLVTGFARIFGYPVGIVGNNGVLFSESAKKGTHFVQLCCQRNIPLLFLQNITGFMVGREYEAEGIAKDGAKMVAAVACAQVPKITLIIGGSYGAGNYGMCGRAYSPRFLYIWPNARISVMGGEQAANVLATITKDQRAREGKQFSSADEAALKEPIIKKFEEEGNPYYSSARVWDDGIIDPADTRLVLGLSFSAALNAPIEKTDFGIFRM
UniProt Q9H944: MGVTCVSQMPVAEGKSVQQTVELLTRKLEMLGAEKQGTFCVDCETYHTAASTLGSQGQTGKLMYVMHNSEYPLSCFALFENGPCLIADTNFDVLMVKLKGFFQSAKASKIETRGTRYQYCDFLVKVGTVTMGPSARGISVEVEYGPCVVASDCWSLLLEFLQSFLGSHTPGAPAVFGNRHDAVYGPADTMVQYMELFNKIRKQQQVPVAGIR
UniProt Q93074, whole entry, looked up: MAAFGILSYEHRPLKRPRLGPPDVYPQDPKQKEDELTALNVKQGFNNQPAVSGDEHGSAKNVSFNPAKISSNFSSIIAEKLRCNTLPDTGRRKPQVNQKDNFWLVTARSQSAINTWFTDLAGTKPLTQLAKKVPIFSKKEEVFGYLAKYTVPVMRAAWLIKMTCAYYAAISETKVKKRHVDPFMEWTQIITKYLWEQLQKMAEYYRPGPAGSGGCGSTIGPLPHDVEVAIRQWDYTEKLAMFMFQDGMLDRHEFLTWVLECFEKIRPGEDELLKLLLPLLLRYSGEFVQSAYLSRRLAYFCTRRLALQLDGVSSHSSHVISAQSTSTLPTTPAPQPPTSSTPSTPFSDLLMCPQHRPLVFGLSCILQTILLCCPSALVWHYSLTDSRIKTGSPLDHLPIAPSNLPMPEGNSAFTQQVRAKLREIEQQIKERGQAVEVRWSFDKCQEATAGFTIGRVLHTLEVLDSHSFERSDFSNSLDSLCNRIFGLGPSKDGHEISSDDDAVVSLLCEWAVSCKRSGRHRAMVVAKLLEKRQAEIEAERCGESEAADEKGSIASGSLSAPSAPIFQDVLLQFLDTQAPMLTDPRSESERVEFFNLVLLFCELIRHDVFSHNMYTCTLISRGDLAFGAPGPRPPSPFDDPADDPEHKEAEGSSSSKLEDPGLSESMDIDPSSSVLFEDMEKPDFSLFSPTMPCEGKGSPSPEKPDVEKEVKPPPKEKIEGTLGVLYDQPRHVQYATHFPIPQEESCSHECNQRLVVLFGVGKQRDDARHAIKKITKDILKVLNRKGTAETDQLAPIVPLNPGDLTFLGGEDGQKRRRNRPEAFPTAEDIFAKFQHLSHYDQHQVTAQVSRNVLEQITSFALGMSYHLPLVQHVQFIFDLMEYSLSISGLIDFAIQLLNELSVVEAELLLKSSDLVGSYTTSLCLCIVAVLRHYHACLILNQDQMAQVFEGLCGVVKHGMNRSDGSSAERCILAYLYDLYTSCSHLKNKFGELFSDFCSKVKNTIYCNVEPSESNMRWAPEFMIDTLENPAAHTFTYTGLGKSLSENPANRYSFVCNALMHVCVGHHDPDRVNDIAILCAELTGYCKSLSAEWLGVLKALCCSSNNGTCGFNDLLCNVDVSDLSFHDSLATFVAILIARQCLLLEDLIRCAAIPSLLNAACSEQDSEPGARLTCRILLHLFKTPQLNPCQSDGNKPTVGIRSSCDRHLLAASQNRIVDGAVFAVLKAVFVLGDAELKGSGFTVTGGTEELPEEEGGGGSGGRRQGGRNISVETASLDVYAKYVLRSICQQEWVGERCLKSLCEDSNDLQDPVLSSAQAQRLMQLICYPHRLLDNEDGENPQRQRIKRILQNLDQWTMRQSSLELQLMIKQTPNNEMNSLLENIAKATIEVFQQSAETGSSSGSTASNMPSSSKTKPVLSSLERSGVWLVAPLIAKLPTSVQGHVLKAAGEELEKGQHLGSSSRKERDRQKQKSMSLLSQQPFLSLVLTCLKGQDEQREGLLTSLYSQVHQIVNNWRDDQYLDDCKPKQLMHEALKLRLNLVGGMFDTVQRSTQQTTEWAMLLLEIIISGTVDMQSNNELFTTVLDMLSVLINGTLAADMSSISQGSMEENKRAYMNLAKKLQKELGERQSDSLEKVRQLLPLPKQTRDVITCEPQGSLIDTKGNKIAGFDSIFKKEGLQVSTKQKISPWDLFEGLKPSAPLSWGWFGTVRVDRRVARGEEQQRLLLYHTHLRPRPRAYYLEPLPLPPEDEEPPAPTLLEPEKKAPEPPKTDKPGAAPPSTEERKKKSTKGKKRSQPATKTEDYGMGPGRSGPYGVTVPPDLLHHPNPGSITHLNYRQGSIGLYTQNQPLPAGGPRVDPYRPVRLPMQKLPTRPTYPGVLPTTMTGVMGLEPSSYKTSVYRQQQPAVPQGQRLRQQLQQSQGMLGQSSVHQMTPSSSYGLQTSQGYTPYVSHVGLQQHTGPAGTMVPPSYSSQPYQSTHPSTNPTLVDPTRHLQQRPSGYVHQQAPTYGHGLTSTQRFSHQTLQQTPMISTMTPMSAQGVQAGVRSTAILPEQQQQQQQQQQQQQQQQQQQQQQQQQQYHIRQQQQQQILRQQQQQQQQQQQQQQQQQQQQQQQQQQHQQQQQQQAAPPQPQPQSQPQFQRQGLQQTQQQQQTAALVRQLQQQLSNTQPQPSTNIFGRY
UniProt O75448: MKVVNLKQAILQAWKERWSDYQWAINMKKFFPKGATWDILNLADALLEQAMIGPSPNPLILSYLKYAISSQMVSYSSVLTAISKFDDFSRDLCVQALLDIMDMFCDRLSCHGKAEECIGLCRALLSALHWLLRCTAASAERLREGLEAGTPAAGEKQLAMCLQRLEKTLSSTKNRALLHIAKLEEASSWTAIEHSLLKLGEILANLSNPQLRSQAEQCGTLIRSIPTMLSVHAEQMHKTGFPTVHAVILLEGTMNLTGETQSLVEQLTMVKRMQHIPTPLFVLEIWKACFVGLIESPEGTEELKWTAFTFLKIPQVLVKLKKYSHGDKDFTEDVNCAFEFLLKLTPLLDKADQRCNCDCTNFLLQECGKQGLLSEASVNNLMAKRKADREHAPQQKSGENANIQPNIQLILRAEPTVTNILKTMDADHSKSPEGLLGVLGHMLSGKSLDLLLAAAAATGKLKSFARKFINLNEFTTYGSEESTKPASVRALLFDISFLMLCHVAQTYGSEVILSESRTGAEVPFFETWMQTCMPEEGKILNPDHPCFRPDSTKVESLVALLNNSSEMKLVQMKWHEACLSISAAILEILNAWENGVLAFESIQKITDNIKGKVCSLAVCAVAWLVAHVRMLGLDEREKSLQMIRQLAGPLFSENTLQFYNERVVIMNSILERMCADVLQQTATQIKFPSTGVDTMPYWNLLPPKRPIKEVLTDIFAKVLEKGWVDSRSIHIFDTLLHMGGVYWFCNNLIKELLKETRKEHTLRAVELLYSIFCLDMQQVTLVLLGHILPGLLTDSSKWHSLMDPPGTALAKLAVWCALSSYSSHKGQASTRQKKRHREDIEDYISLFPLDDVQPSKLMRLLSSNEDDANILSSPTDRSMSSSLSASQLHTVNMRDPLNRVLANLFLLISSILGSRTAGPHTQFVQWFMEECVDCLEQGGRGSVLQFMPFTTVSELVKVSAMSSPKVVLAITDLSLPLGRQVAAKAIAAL
UniProt Q7L2J0: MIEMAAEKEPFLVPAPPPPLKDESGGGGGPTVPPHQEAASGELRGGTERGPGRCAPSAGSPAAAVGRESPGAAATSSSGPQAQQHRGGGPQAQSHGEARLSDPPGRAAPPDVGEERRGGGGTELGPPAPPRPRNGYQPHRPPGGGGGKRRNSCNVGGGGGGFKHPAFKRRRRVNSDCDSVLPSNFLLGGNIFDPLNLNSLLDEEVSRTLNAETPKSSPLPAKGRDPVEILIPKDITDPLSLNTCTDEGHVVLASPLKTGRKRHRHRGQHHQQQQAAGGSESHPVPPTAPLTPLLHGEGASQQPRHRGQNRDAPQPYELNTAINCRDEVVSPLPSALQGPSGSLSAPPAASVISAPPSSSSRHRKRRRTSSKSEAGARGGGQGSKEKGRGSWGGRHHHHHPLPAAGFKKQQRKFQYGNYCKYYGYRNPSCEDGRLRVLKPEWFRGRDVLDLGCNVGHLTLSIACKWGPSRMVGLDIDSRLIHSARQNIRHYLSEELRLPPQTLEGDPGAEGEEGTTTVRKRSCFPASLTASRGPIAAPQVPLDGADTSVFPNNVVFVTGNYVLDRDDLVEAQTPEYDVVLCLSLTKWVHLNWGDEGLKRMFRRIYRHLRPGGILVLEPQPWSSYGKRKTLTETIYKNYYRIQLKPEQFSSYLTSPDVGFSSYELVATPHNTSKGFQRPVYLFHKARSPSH
UniProt Q16798: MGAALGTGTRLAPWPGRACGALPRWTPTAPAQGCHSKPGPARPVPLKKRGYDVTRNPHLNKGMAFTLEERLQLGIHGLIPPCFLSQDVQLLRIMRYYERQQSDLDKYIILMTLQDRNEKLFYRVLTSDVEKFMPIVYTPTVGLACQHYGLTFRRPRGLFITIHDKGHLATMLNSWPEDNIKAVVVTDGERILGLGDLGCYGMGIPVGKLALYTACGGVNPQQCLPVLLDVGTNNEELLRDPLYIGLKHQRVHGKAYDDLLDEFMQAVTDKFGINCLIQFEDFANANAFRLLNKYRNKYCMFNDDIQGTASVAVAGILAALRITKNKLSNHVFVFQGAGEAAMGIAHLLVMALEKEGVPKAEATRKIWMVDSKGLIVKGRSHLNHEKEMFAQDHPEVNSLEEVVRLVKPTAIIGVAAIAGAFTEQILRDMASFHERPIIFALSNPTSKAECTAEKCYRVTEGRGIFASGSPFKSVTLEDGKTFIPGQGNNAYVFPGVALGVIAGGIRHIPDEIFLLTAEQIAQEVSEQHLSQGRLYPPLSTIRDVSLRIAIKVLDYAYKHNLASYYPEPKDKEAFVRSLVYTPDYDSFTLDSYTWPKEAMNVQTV
UniProt Q86XN8: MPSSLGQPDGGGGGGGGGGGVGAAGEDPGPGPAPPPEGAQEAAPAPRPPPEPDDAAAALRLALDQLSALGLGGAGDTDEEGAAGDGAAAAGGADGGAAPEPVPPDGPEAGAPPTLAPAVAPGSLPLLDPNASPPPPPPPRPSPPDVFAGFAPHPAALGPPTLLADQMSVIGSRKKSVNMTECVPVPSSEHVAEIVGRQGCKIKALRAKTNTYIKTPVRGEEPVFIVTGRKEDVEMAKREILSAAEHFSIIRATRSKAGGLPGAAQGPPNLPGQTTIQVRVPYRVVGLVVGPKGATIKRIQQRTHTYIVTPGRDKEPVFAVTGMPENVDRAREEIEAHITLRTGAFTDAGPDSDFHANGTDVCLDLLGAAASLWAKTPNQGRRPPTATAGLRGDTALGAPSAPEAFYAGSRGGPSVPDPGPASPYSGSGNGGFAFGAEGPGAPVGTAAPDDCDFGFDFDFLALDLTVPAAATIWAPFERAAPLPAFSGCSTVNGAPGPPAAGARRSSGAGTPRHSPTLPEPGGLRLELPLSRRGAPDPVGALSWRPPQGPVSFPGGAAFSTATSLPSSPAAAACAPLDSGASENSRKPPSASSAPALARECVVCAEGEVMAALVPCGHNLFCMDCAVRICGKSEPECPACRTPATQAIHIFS

Experiments:
Assay in all cases: log2 fold change, soluble protein after heating vs DMSO (PISA); higher = thermal stabilisation; K562 lysate, 10 uM; active = over 0.2 and 3.5 SD of the protein, either way, in both replicates (recomputed)
vemurafenib = compound: CCCS(=O)(=O)Nc1ccc(F)c(C(=O)c2c[nH]c3ncc(-c4ccc(Cl)cc4)cc23)c1F [vemurafenib]
Procedure, shortened: (§1)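 Thermal stability, expressed as log-two fold change relative to solvent controls, is given from duplicates. Crude K562 extract in PBS pH 7.4 with 1 mM MgCl2, at 1 mg/mL protein, was treated with 10 μM compound for 30 min and heated in aliquots for 3 min across 48°C-58°C. After pooling, adjustment to 0.5% NP-40 at 4°C and centrifugation at 21,000xg for 90 min, supernatant protein was measured by TMTpro 16plex LC-MS/MS with channel sums equalised.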

[1] = compound: CCCS(=O)(=O)Nc1ccc(F)c(C(=O)c2c[nH]c3ncc(Cl)cc23)c1F
Procedure, shortened: as §1

barasertib = compound: CCN(CCCOc1ccc2c(Nc3cc(CC(=O)Nc4cccc(F)c4)[nH]n3)ncnc2c1)CCOP(=O)(O)O [barasertib]
Procedure, shortened: as §1

[2] = compound: CC[C@@H]1C(=O)N(C)c2cnc(Nc3ccc(C(=O)NC4CCN(C)CC4)cc3OC)nc2N1C1CCCC1
Procedure, shortened: as §1

volasertib = compound: CC[C@@H]1C(=O)N(C)c2cnc(Nc3ccc(C(=O)N[C@H]4CC[C@H](N5CCN(CC6CC6)CC5)CC4)cc3OC)nc2N1C(C)C [volasertib]
Procedure, shortened: as §1

[3] = compound: CCn1c(C(=O)N(C2CC2)C2CC2)cc2c3c(ncn3C)c(Nc3cc(C)n(C)n3)nc21
Procedure, shortened: as §1

[4] = compound: CCn1cc(-c2ccnc3[nH]c(-c4cccc(CN(C)C)c4)cc23)c(-c2ccc(NC(=O)N(C)C)cc2)n1
Procedure, shortened: as §1

[5] = compound: CN1CCC(CNc2ccc3ncc(-c4cccc(OC(F)(F)F)c4)n3n2)CC1
Procedure, shortened: as §1

saracatinib = compound: CN1CCN(CCOc2cc(OC3CCOCC3)c3c(Nc4c(Cl)ccc5c4OCO5)ncnc3c2)CC1 [saracatinib]
Procedure, shortened: as §1

sotrastaurin = compound: CN1CCN(c2nc(C3=C(c4c[nH]c5ccccc45)C(=O)NC3=O)c3ccccc3n2)CC1 [sotrastaurin]
Procedure, shortened: as §1

alvocidib = compound: CN1CC[C@H](c2c(O)cc(O)c3c(=O)cc(-c4ccccc4Cl)oc23)[C@H](O)C1 [alvocidib]
Procedure, shortened: as §1

Tubastatin A = compound: CN1CCc2c(c3ccccc3n2Cc2ccc(C(=O)NO)cc2)C1 [Tubastatin A]
Procedure, shortened: as §1

[6] = compound: CNC(=O)C1=CC=CC=C1NC2=NC(=NC=C2Cl)NC3=C(C=C(C=C3)N4CCOCC4)OC
Procedure, shortened: as §1

defactinib = compound: CNC(=O)c1ccc(Nc2ncc(C(F)(F)F)c(NCc3nccnc3N(C)S(C)(=O)=O)n2)cc1 [defactinib]
Procedure, shortened: as §1

[7] = compound: CNc1nc(-c2ccc3c(N)n[nH]c3c2)cc(N2C[C@@H](C(=O)NC3CCCCC3)CC[C@H]2C)n1
Procedure, shortened: as §1

encorafenib = compound: COC(=O)N[C@@H](C)CNc1nccc(-c2cn(C(C)C)nc2-c2cc(Cl)cc(NS(C)(=O)=O)c2F)n1 [encorafenib]
Procedure, shortened: as §1

[8] = compound: COC(=O)[C@H](CCSC)NC(=O)C1=C(C=C(C=C1)NC[C@H](CS)N)C2=CC=CC=C2
Procedure, shortened: as §1

alisertib = compound: COc1cc(Nc2ncc3c(n2)-c2ccc(Cl)cc2C(c2c(F)cccc2OC)=NC3)ccc1C(=O)O [alisertib]
Procedure, shortened: as §1

[9] = compound: COc1cc2nc(-c3cc(F)ccc3O)nc(N[C@@H]3CNC[C@H]3C(C)(C)O)c2cc1OC
Procedure, shortened: as §1

gefitinib = compound: COc1cc2ncnc(Nc3ccc(F)c(Cl)c3)c2cc1OCCCN1CCOCC1 [gefitinib]
Procedure, shortened: as §1

Measured: log2 fold change

ME1 (UniProt P48163)
inactive: vemurafenib -0.034 | [1] -0.008 | barasertib -0.014 | [2] -0.011 | volasertib 0.016 | [3] 0.011 | [4] -0.025 | [5] 0.023 | saracatinib 0.013 | sotrastaurin 0.028 | alvocidib -0.002 | Tubastatin A 0.019 | [6] 0.015 | defactinib 0.037 | [7] -0.016 | encorafenib 0.014 | [8] -0.049 | alisertib -0.015 | [9] -0.008 | gefitinib 0.061

MBNL1 isoform 5 (UniProt Q9NR56)
inactive: vemurafenib -0.031 | [1] -0.006 | barasertib -0.004 | [2] 0.035 | volasertib -0.013 | [3] 0.055 | [4] 0.03 | [5] 0.067 | saracatinib -0.01 | sotrastaurin -0.048 | alvocidib -0.014 | Tubastatin A 0.013 | [6] -0.028 | defactinib 0.011 | [7] -0.033 | encorafenib 0.036 | [8] -0.145 | alisertib 0.029 | [9] -0.024 | gefitinib -0.006

MBLAC2 (UniProt Q68D91)
inactive: vemurafenib -0.069 | [1] -0.006 | barasertib 0.013 | [2] -0.042 | volasertib 0.002 | [3] 0.008 | [4] 0.036 | [5] 0.078 | saracatinib -0.042 | sotrastaurin 0.016 | alvocidib -0.011 | Tubastatin A 0.033 | [6] 0.041 | defactinib 0.059 | [7] -0.096 | encorafenib 0.06 | [8] -0.003 | alisertib 0.005 | [9] 0.013 | gefitinib 0.033

MCCC2 (UniProt Q9HCC0)
inactive: vemurafenib 0.009 | [1] -0.008 | barasertib -0.035 | [2] 0.017 | volasertib 0.003 | [3] -0.009 | [4] -0.032 | [5] 0.015 | saracatinib -0.017 | sotrastaurin 0.002 | alvocidib 0.008 | Tubastatin A 0.008 | [6] -0.101 | defactinib 0.007 | [7] -0.022 | encorafenib -0.002 | [8] -0.002 | alisertib -0.007 | [9] -0.007 | gefitinib -0.016

MCM7 (UniProt P33993)
inactive: vemurafenib -0.037 | [1] 0.009 | barasertib 0.03 | [2] -0.05 | volasertib -0.088 | [3] 0.032 | [4] 0.015 | [5] -0.026 | saracatinib -0.026 | sotrastaurin 0.008 | alvocidib 0.021 | Tubastatin A -0.048 | [6] 0.021 | defactinib -0.011 | [7] -0.008 | encorafenib -0.017 | [8] 0.141 | alisertib 0.003 | [9] -0.011 | gefitinib -0.026

MBD3 (UniProt O95983)
inactive: vemurafenib -0.061 | [1] 0.001 | barasertib -0.033 | [2] 0.025 | volasertib -0.028 | [3] 0.041 | [4] -0.054 | [5] 0.079 | saracatinib 0.037 | sotrastaurin -0.039 | alvocidib -0.064 | Tubastatin A -0.023 | [6] 0.01 | defactinib 0.113 | [7] -0.043 | encorafenib 0.048 | [8] -0.032 | alisertib 0.008 | [9] -0.003 | gefitinib -0.045

MEF2C isoform 5 (UniProt Q06413)
inactive: vemurafenib 0.05 | [1] 0.015 | barasertib 0.025 | [2] -0.013 | volasertib -0.044 | [3] -0.009 | [4] 0.011 | [5] -0.004 | saracatinib 0.008 | sotrastaurin -0.047 | alvocidib -0.021 | Tubastatin A 0.008 | [6] -0.003 | defactinib -0.007 | [7] -0.079 | encorafenib 0.096 | [8] -0.016 | alisertib 0.015 | [9] -0.039 | gefitinib -0.016

MED7 (UniProt O43513)
inactive: vemurafenib 0.153 | [1] -0.018 | barasertib -0.083 | [2] -0.017 | volasertib -0.025 | [3] 0.075 | [4] 0.035 | [5] 0.062 | saracatinib -0.025 | sotrastaurin 0.036 | alvocidib -0.058 | Tubastatin A 0.029 | [6] -0.012 | defactinib 0.048 | [7] 0.06 | encorafenib 0.039 | [8] -0.311 | alisertib -0.109 | [9] 0.04 | gefitinib -0.349

MED20 (UniProt Q9H944)
inactive: vemurafenib -0.003 | [1] -0.027 | barasertib 0.061 | [2] 0.089 | volasertib 0.012 | [3] 0.097 | [4] -0.088 | [5] 0.075 | saracatinib -0.01 | sotrastaurin -0.013 | alvocidib -0.021 | Tubastatin A 0.005 | [6] 0.035 | defactinib 0.03 | [7] 0.003 | encorafenib 0.008 | [8] 0.276 | alisertib -0.012 | [9] -0.037 | gefitinib -0.039

2 successive records already listed, quoted:
MBNL1 isoform 5 (UniProt Q9NR56)
inactive: vemurafenib -0.031 | [1] -0.006 | barasertib -0.004 | [2] 0.035 | volasertib -0.013 | [3] 0.055 | [4] 0.03 | [5] 0.067 | saracatinib -0.01 | sotrastaurin -0.048 | alvocidib -0.014 | Tubastatin A 0.013 | [6] -0.028 | defactinib 0.011 | [7] -0.033 | encorafenib 0.036 | [8] -0.145 | alisertib 0.029 | [9] -0.024 | gefitinib -0.006

MBLAC2 (UniProt Q68D91)
inactive: vemurafenib -0.069 | [1] -0.006 | barasertib 0.013 | [2] -0.042 | volasertib 0.002 | [3] 0.008 | [4] 0.036 | [5] 0.078 | saracatinib -0.042 | sotrastaurin 0.016 | alvocidib -0.011 | Tubastatin A 0.033 | [6] 0.041 | defactinib 0.059 | [7] -0.096 | encorafenib 0.06 | [8] -0.003 | alisertib 0.005 | [9] 0.013 | gefitinib 0.033

The listing continues.

MED12 isoform 2 (UniProt Q93074)
inactive: vemurafenib -0.075 | [1] 0.005 | barasertib 0.057 | [2] -0.012 | volasertib -0.065 | [3] 0.037 | [4] 0.002 | [5] -0.066 | saracatinib 0.026 | sotrastaurin 0.022 | alvocidib -0.022 | Tubastatin A -0.161 | [6] -0.02 | defactinib 0.029 | [7] -0.041 | encorafenib 0.028 | [8] 0.06 | alisertib 0.016 | [9] -0.011 | gefitinib 0.027

MCRIP1 (UniProt I3L4Q0)
inactive: vemurafenib -0.002 | [1] 0.005 | barasertib 0.05 | [2] 0.05 | volasertib 0.011 | [3] 0.028 | [4] 0.032 | [5] -0.023 | saracatinib 0.021 | sotrastaurin 0.055 | alvocidib 0.02 | Tubastatin A 0.055 | [6] 0.011 | defactinib 0.032 | [7] -0.012 | encorafenib 0.024 | [8] -0.03 | alisertib 0.03 | [9] -0.007 | gefitinib -0.037

MED24 (UniProt O75448)
inactive: vemurafenib -0.004 | [1] 0.004 | barasertib 0.018 | [2] 0.027 | volasertib -0.054 | [3] 0 | [4] -0.052 | [5] 0.006 | saracatinib 0.031 | sotrastaurin 0.003 | alvocidib 0.029 | Tubastatin A -0.111 | [6] 0.038 | defactinib 0.007 | [7] 0.004 | encorafenib 0.022 | [8] 0.022 | alisertib -0.028 | [9] -0.002 | gefitinib -0.018

MCM5 (UniProt P33992)
inactive: vemurafenib -0.027 | [1] 0.003 | barasertib 0.022 | [2] -0.024 | volasertib -0.004 | [3] 0.012 | [4] -0.013 | [5] -0.005 | saracatinib -0.021 | sotrastaurin 0.029 | alvocidib -0.011 | Tubastatin A 0.015 | [6] -0.001 | defactinib 0.008 | [7] 0.029 | encorafenib -0.003 | [8] 0.098 | alisertib 0.005 | [9] 0.002 | gefitinib -0.011

MEPCE (UniProt Q7L2J0)
inactive: vemurafenib -0.048 | [1] -0.002 | barasertib -0.059 | [2] -0.01 | volasertib -0.016 | [3] 0.005 | [4] 0.023 | [5] -0.026 | saracatinib -0.011 | sotrastaurin -0.02 | alvocidib 0.003 | Tubastatin A -0.032 | [6] -0.004 | defactinib 0.003 | [7] -0.032 | encorafenib 0.015 | [8] 0.131 | alisertib -0.01 | [9] -0.029 | gefitinib 0.016

ME3 (UniProt Q16798)
inactive: vemurafenib 0.053 | [1] -0.046 | barasertib -0.015 | [2] -0.036 | volasertib 0.008 | [3] 0.018 | [4] -0.167 | [5] 0.131 | saracatinib 0.015 | sotrastaurin 0.041 | alvocidib -0.12 | Tubastatin A -0.06 | [6] -0.105 | defactinib -0.037 | [7] -0.222 | encorafenib 0.005 | [8] 0.088 | alisertib -0.123 | [9] 0.103 | gefitinib 0.023

MEX3D isoform 3 (UniProt Q86XN8)
inactive: vemurafenib -0.239 | [1] 0.009 | barasertib 0.154 | [2] 0.003 | volasertib 0.029 | [3] 0.053 | [4] -0.031 | [5] 0.044 | saracatinib -0.146 | sotrastaurin -0.001 | alvocidib -0.023 | Tubastatin A -0.163 | [6] 0.037 | defactinib 0.041 | [7] -0.024 | encorafenib -0.007 | [8] -0.025 | alisertib -0.001 | [9] -0.013 | gefitinib -0.04
